Results are given in words; binding and its absence hold for the method and conditions named. Some results given as binding are weak or reduced against the parent protein; the word gives no strength.
B1: anti-BCMA antibody A6-3, full-length human IgG1/kappa (antibody, V domains shown)
VH: QVQLVQSGAEVKKPGASVKVSCKASGYTFTNHIIHWVRQAPGQGLEWMGYINPYPGYHGYNDKFSGRATMTSDTSTSTVYMELSSLRSEDTAVYYCARDGYYRDQDVLDYWGQGTLVTVSS
VL: DIQMTQSPSSLSASVGDRVTITCKASQDISQYLNWYQQKPGKAPKLLIYYTSGLHPGVPSRFSGSGSGTDFTFTISSLEPEDIATYYCQQGYALPWTFGQGTKVEIKR
B2: anti-CD3D&E antibody D1E9, full-length human IgG1 (L234A/L235A/N297A)/kappa (antibody, V domains shown)
VH: EVQLVESGGGLVQPGRSLRLSCAASGFTFDDFAMHWVRQAPGKGLEWVSGITWNSGSVGYADSVKGRFTISRDNAKKSLYLQMNSLRAEDTALYYCAKDRSGYGHYYYGMDVWGQGTTVTVAS
VL: EIVMTQSPATLSVSPGERATLSCRASTSVSHNVAWYQQKPGQAPRLLIYGASTKVTGIPARFSGSGSGTEFTLTISSLQSEDFAVYYCQHYINWPLTFGGGTKVEIKR
B3: anti-CD3D&E antibody D12A4, full-length human IgG1 (L234A/L235A/N297A)/kappa (antibody, V domains shown)
VH: EVQLVESGGGLVQPGRSLRLSCAASGFTFGDYAMHWVRQAPGKGLEWVSGISWNHGHIGYADSVKGRFTISRDNAKKSLYLQMNSLRAEDTALYYCAKDNSGYGHYYYGMDVWGQGTTVTVAS
VL: EIVMTQSPATLSVSPGERATLSCRASRSVSRNLAWYQQKPGQAPRLLIYGASTKPTGIPARFSGSGSGTEFTLTISSLQSEDFAVYYCQHYTNWPLRFGGGTKVEIKR

Sequences of proteins named here, by UniProt entry; tags and fusion partners are left off. A change or cut given only in a name is not applied to a line headed by its entry.
UniProt Q02223: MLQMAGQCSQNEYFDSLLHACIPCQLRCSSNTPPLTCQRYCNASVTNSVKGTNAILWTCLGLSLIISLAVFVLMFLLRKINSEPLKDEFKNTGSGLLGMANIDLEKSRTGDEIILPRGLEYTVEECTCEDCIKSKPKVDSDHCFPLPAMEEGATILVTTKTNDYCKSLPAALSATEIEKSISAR
UniProt P04234: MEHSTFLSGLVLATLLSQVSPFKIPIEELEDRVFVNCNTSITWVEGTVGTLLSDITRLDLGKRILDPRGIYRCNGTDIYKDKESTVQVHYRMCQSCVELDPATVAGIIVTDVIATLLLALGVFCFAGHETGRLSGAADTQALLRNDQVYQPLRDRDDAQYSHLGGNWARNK

Key:
[1] = molecular target: BCMA-his protein (Cat #: BCA-H522y, ACRO) (human) (UniProt Q02223); assay: ELISA, coated BCMA protein
[2] = molecular target: BCMA-his protein (Cat #: BCA-H522y, ACRO) (human) (UniProt Q02223); assay: SPR (BIAcore 8K)
CD3 on Jurkat cells = CD3 on Jurkat cells (UniProt P04234); assay: flow cytometry on Jurkat cells

Binder	binding [1]	binding [2]	binding (CD3 on Jurkat cells)
B1	binds	binds	
B2			binds
B3			binds
